Source: PubChem BioAssay AID504834 (National Center for Advancing Translational Sciences (NCATS), 2011)
Among all 320,000 compounds or so, about 22,000 (6.9%) were called active. This list was built around the results that the source calls inconclusive (neither active nor inactive); the mix of calls is not that of the screen. Calls come from the whole dose curve; as a rule, active = well fitted inhibition curve with a large enough effect; inconclusive = small, poorly fitted or top-dose-only effect, or another doubt; inactive = no such curve, though single readings can be large or run the other way. Potencies of inconclusive entries are doubtful fits and often do not repeat. Where a SMILES comes first, the peptide text is derived from it. [ ]: non-standard residue; d: D form. NMeY = CN[C@@H](Cc1ccc(O)cc1)C(=O)O; NMeF = CN[C@@H](Cc1ccccc1)C(=O)O; 2Abz = Nc1ccccc1C(=O)O

Assay: Primary qHTS for delayed death inhibitors of the malarial parasite plastid, 96 hour incubation
Details: P. falciparum luciferase reporter growth; series mostly up to 28.7 µM; activity change, negative = inhibition: at the top concentration
Outline: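 Plates of compound plus infected erythrocytes (2% hematocrit, 0.05% parasitemia final) incubate 96 hours, 37 C, 5% CO2. Detection reagent added; reduced luminescence from the parasites' luciferase reporter flags inhibition.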
% is set by controls: 0 for no effect and ±100 for the full control effect; potency is the fitted concentration of half-maximal effect.

| SMILES | activity change, negative = inhibition | Potency |
| --- | --- | --- |
| O=C(Cn1nc(C(=O)O)c2ccccc2c1=O)c1cc(F)ccc1F | inactive: -4.98% |  |
| COc1ccc(OC)c(S(=O)(=O)n2ccc(C)n2)c1 | inactive: -7.2% |  |
| CC(C)(C)NC(=O)C(=O)NCc1ccccn1 |  | inconclusive: 18.5 µM [inhibitor, single point] |
| CSc1ccc(-c2nnn(Cc3ccccn3)n2)cc1 |  | inconclusive: 0.0029 µM [inhibitor, full curve, poor fit] |
| O=C(NC(=S)NCc1ccc(-c2nc3ccccc3s2)cc1)c1ccco1 |  | active: 14.7 µM |
| CCc1nnc(NC(=O)c2ccc(OC)c(S(=O)(=O)N3CCCC3)c2)s1 |  | inconclusive: 18.5 µM [inhibitor, single point] |
| CCn1cnc2c1c(=O)n(CC(=O)NCc1ccccc1)c(=O)n2Cc1ccccc1 |  | inconclusive: 18.5 µM [inhibitor, single point] |
| Cc1ccc(C(=O)OCC(=O)N2CC(=O)Nc3ccccc32)s1 |  | inconclusive: 13.1 µM [inhibitor, single point] |
| O=C(NC(=S)N1CCCCC1)C12CC3CC(CC(C3)C1)C2 |  | inconclusive: 18.5 µM [inhibitor, partial curve, poor fit] |
| CCOc1ccc(OCC)c(NC(=O)C2CCN(S(=O)(=O)c3ccc4c(c3)CC(C)N4C(C)=O)CC2)c1 (stereo unspecified) | inactive: 1.11% |  |
| CC(C)(C)n1ncc2c(=O)n(Cc3c(F)cccc3Cl)cnc21 |  | inconclusive: 4.65 µM [inhibitor, partial curve] |
| COc1ccc(CCNc2ccc(C(CC(N)=O)NC(=O)c3cc(OC)ccc3OC)cc2[N+](=O)[O-])cc1 (stereo unspecified) |  | inconclusive: 2.94 µM [inhibitor, full curve, poor fit] |
| COc1ccc(C(=O)NC(=S)NNC(=O)c2ccco2)cc1 | inactive: 1.33% |  |
| CC(C)C[C@@H]1NC(=O)[C@H](Cc2ccccc2)N(C)C(=O)[C@H](C)NC(=O)c2ccccc2NC(=O)[C@H](Cc2ccc(O)cc2)N(C)C1=O (cyclo([2Abz]A[NMeF]L[NMeY])) |  | inconclusive: 18.5 µM [inhibitor, single point] |
| Fc1ccc(NC(=S)N2CCCc3ccccc32)cc1 |  | inconclusive: 0.329 µM [inhibitor, full curve] |
| CCn1c2c(c(=N)c3c1CCC3)CCCC2 |  | inconclusive: 0.0928 µM [inhibitor, full curve, poor fit] |
| CCCc1ccc2oc(C(=O)N(C)Cc3ccn[nH]3)c(C)c2c1 |  | inconclusive: 13.1 µM [inhibitor, single point] |
| CCOc1cc(-c2noc(N)c2C(=O)OC)cc(OCC)c1OCC |  | active: 11.7 µM |

Look-ups from above.
CCc1nnc(NC(=O)c2ccc(OC)c(S(=O)(=O)N3CCCC3)c2)s1 | Potency: inconclusive: 18.5 µM [inhibitor, single point]
COc1ccc(C(=O)NC(=S)NNC(=O)c2ccco2)cc1 | activity change, negative = inhibition: inactive: 1.33%

The list continues.

| SMILES | activity change, negative = inhibition | Potency |
| --- | --- | --- |
| O=C(CN1C(=O)c2ccccc2C1=O)Nc1sc2c(c1C(=O)NCC1CCCO1)CCC2 (stereo unspecified) | inactive: 102% |  |
| Cc1nc(N)c(Cc2ccc(Cl)cc2Cl)c(N)n1 |  | inconclusive: 8.28 µM [inhibitor, partial curve, poor fit] |
| CC1(C)Cc2c(c(N3CCOCC3)nc3snc(Br)c23)CO1 |  | active: 0.657 µM |
| COc1ccc(NC(=O)CN(C)CCOc2ccc(Cl)cc2)cc1OC | inactive: 1.23% |  |
| CC(C)n1ncc2c(C(=O)Nc3cccc(C#N)c3)cc(C3CC3)nc21 |  | active: 5.22 µM |
| C/C(=C/c1ccccc1)C(=O)N1CCN(c2ccccc2)CC1 | inactive: -16% |  |
| CCCCCCCCCC[n+]1cccc2c3ccccc3ccc21 |  | inconclusive: 4.15 µM [inhibitor, partial curve, poor fit] |
| CCC(CO)Nc1ccc(-c2n[nH]c(=O)c3ccccc23)cc1[N+](=O)[O-] (stereo unspecified) |  | inconclusive: 14.7 µM [inhibitor, single point] |
| O=C(Cn1c2[n+](c3ccc(C(F)(F)F)cc31)CCCCC2)c1cccc([N+](=O)[O-])c1 |  | active: 13.1 µM |
| C/C(=N\NC(=O)CCCC(=O)O)c1c(-c2ccccc2)c2cc(Cl)ccc2[nH]c1=O | inactive: 51.5% |  |
| O=c1c2ccccc2oc2cc(OCc3ccc(F)cc3)cc(O)c12 | inactive: 23.1% |  |
| COc1ccc(-n2nc(C(=O)NCC(=O)N3CCN(Cc4ccccc4)CC3)c3ccccc3c2=O)cc1OC |  | active: 1.04 µM |
| COCCn1c(C)cc(C(=O)CN2CCCCC2)c1C | inactive: 14% |  |
| COc1ccc2c(c1)CCN1C2CCN2C(=O)CCC21 (stereo unspecified) | inactive: -7.25% |  |
| COc1cc(C(=O)NCCc2ccc(F)cc2)c([N+](=O)[O-])cc1OC |  | inconclusive: 18.5 µM [inhibitor, single point] |
| C[n+]1ccc(-c2ccncc2)cc1 |  | inconclusive: 14.7 µM [inhibitor, partial curve, poor fit] |
| COc1cc(NC(=O)Cn2ccsc2=N)c(C)cc1[N+](=O)[O-] |  | inconclusive: 18.5 µM [inhibitor, single point] |
| CCOC(=O)C1CCCN(S(=O)(=O)c2ccc3c4c2CC(=O)N4CC(C)S3)C1 (stereo unspecified) |  | inconclusive: 4.65 µM [inhibitor, partial curve] |
